Test [1] concerns the target T1, Murine B7-H4 ECD-Flag-His10 (monomeric) (mouse) (UniProt Q7TSP5).
T1 sequence (looked up): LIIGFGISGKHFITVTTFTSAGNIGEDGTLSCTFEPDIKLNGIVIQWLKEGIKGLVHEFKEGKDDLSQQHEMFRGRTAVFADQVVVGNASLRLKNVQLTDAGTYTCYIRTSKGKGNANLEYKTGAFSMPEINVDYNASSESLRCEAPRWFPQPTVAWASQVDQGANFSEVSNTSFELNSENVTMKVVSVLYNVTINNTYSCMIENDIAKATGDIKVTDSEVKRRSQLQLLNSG
The test is described as follows: ELISA, absorbance 450 nm; x axis printed as antigen concentration (µg/ml). (In an ELISA, binding on a coated surface is turned into a signal by an enzyme label.)

By UniProt entry, the sequences of proteins in these tests, tags left out.
UniProt Q9NZQ7: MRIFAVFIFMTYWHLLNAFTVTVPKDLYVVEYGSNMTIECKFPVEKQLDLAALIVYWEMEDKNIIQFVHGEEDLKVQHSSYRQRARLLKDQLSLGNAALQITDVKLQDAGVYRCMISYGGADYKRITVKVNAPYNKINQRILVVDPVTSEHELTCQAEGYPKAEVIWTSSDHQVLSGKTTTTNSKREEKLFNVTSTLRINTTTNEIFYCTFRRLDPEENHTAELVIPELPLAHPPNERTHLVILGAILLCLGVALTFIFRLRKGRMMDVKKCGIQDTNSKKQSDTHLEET

Test [2] has as its target T2, Human B7-H4 ECD-Flag-His10 (monomeric) (human) (UniProt Q7Z7D3).
T2 sequence: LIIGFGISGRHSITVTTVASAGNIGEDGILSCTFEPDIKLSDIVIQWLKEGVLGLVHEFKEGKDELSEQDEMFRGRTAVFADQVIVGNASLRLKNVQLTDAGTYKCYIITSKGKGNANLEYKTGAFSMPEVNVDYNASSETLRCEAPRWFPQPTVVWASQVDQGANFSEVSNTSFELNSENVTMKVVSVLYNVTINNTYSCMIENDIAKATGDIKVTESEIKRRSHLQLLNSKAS
The description is as above.

For test [3], the target named is T1, Murine B7-H4 ECD-Flag-His10 (monomeric) (mouse). The test is described as follows: ELISA.
Test [4] deals with T2, Human B7-H4 ECD-Flag-His10 (monomeric) (human). The test is described as follows: ELISA.
For test [5], the target named is human B7-H4 on cells (human) (UniProt Q7Z7D3). Kind of test: on-cell western (Odyssey) on fixed cells, with and without transfection with full length B7-H4 vector.
For test [6] the target is unchanged. Kind of test: on-cell western, OVCAR4 cells.
Test [7] addresses recombinant cynomolgus monkey B7-H4 (tag format not stated) (cynomolgus monkey). Kind of test: ELISA, Maia format mAb (GLQ).
The target in another test is huB7-H1 (human) (UniProt Q9NZQ7). The test is described as follows: ELISA, absorbance 450 nm, Human B7H1 (ECD) F10H; x axis printed as antigen concentration (nM).
The target in test [8] is recombinant cynomolgus monkey B7-H4 (tag format not stated) (cynomolgus monkey). Kind of test: ELISA, Maia format mAb (GLY).
In test [9] the target is T2, Human B7-H4 ECD-Flag-His10 (monomeric) (human). Kind of test: ELISA, absorbance 450 nm, antigen human B7-H4(ECD) F10H; x axis Antigen Conc. (µg/ml).
In test [10] the target is T3, recombinant mouse B7-H4 (tag format not stated) (mouse) (UniProt Q7TSP5).
T3 sequence (looked up): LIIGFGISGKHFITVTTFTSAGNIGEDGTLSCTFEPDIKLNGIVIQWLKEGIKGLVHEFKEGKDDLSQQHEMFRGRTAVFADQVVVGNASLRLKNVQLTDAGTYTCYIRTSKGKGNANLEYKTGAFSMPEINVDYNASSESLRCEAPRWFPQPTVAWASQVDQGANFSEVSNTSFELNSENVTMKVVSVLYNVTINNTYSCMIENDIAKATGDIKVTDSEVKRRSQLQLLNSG
Kind of test: ELISA, Maia format mAb.

Test [11] deals with recombinant human B7-H4 (tag format not stated) (human) (UniProt Q7Z7D3). The test is described as follows: ELISA, Maia format mAb.
Test [12] has as its target recombinant cynomolgus monkey B7-H4 (tag format not stated) (cynomolgus monkey). The test is described as follows: ELISA, Maia format mAb.

These are yes or no findings as the source states them, for the method shown. Some results given as binding are weak or reduced against the parent protein; the word gives no strength. For some of these results: Where a sequence is shown, tags or fusion partners need not be part of it.

B1: ZY0EQD-E02 human IgG1-TM (antibody, V domains shown)
VH: QVQLQQWGAGLLKPSETLSLTCAVYGGSFSGYYWNWIRQPPGKGLEWIGEINHSGSTSYNPSLKSRVTISVDTSKNQFSLKLSSVTAADTAVYYCARVLYNWNVDSWGQGTLVTVSS
VL: DIQMTQSPSSLSASVGDRVTITCRASQDIRNDVGWYQQKPGKAPKRLIYAASRLQSGVPSRFSGSGSGTEFTLTISSLQPEDFATYYCLQHNSYPRTFGQGTKVEIK
On to B1, for which the binding entry in test [1], in [2], in [3] and in [4] was “binds” in each case.

B2: ZY0EQD-E02 (isotype format not stated) (antibody, V domains shown)
VH: QVQLQQWGAGLLKPSETLSLTCAVYGGSFSGYYWNWIRQPPGKGLEWIGEINHSGSTSYNPSLKSRVTISVDTSKNQFSLKLSSVTAADTAVYYCARVLYNWNVDSWGQGTLVTVSS
VL: DIQMTQSPSSLSASVGDRVTITCRASQDIRNDVGWYQQKPGKAPKRLIYAASRLQSGVPSRFSGSGSGTEFTLTISSLQPEDFATYYCLQHNSYPRTFGQGTKVEIK
Take B2: the binding entry in test [5] and in test [6] was “binds” throughout.

B3: E02-GLQ-maia (antibody, human IgG1, kappa, V domains shown)
VH: QVQLQQWGAGLLKPSETLSLACTVYGGSFSGYYWNWIRQPPGKGLEWIGEIQHSGSTSYNPSLKSRVTISVDTSKNQFSLKLSSVTAADTAVYYCARVLYNWNVDSWGQGTLVTVSS
VL: DIQMTQSPSSLSASVGDRVTITCRASQDIRNDVGWYQQKPGKAPKRLIYAASRLQSGVPSRFSGSGSGTEFTLTISSLQPEDFATYYCLQHNSYPRTFGQGTKVEIKR
With B3, the binding result in test [7] is listed as “binds”; with huB7-H1 (human), “no binding (tested: about 600 nM (antigen))”.

B4: E02-GLY-maia (antibody, human IgG1, kappa, V domains shown)
VH: QVQLQQWGAGLLKPSETLSLACTVYGGSFSGYYWNWIRQPPGKGLEWIGEIYHSGSTSYNPSLKSRVTISVDTSKNQFSLKLSSVTAADTAVYYCARVLYNWNVDSWGQGTLVTVSS
VL: DIQMTQSPSSLSASVGDRVTITCRASQDIRNDVGWYQQKPGKAPKRLIYAASRLQSGVPSRFSGSGSGTEFTLTISSLQPEDFATYYCLQHNSYPRTFGQGTKVEIKR
Consider B4, for which the binding entry with huB7-H1 (human) is on record as “no binding (tested: about 600 nM (antigen))”; in test [8] it was “binds”.

B5: ZY0EQD-E02 murine IgG1 (antibody, V domains shown)
VH: QVQLQQWGAGLLKPSETLSLTCAVYGGSFSGYYWNWIRQPPGKGLEWIGEINHSGSTSYNPSLKSRVTISVDTSKNQFSLKLSSVTAADTAVYYCARVLYNWNVDSWGQGTLVTVSS
VL: DIQMTQSPSSLSASVGDRVTITCRASQDIRNDVGWYQQKPGKAPKRLIYAASRLQSGVPSRFSGSGSGTEFTLTISSLQPEDFATYYCLQHNSYPRTFGQGTKVEIK
B5: the binding entry in test [9], in [1], in [2], in [3] and in [4] was “binds” throughout.

B6: E02-maia (ZY0EQD_E02, wildtype, Maia format human IgG1) (antibody, V domains shown)
VH: QVQLQQWGAGLLKPSETLSLTCAVYGGSFSGYYWNWIRQPPGKGLEWIGEINHSGSTSYNPSLKSRVTISVDTSKNQFSLKLSSVTAADTAVYYCARVLYNWNVDSWGQGTLVTVSS
VL: DIQMTQSPSSLSASVGDRVTITCRASQDIRNDVGWYQQKPGKAPKRLIYAASRLQSGVPSRFSGSGSGTEFTLTISSLQPEDFATYYCLQHNSYPRTFGQGTKVEIKR
B6: the binding entry was “no binding (tested: about 600 nM (antigen))” with huB7-H1 (human), “binds” in test [10], “binds” in test [11] and “binds” in test [12].

For the origin of these results see patent US20240239894A1, “THERAPEUTIC BINDING MOLECULES” (MedImmune Limited, priority 2020, published 2024).
